{"source": "PubChem BioAssay AID1347423", "about": "(Functional Genomics Laboratory (NCATS/FGL), 2020)", "note": "Among all 52,000 sequences or so, about 210 (0.4%) were called active.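 How the source made its calls: active means gene whose silencing raises cell survival under the drug, median off-target-corrected z-score across its silencing RNAs 2 or more; inactive means the rest.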 Some of the results follow."}
{"assay": "Resistance to Poly (ADP-Ribose) Polymerase inhibitor: Gene Identification via Genome-wide siRNA Screen", "details": "mouse BRCA2 R2336H ES cells, olaparib, CellTiter-Glo viability; hits give high values", "summary_of_the_method": "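Genome-wide siRNA screen (3 siRNAs/gene, 20 nM) in mouse ES cells carrying hypomorphic BRCA2 R2336H; olaparib 500 nM added 48 h post-transfection, CellTiter-Glo viability 72 h later. Normalized to plate-median negative control; MAD z-scores, gene median, seed-adjusted.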"}
{"sequence": "GCGAAGUGGACAUCGUUGUTT against Ikbkb", "z-score": "inactive: 0.516"}
{"sequence": "GGAAGCUUCCUAAUUCUUGTT against Slc16a1", "z-score": "inactive: -1.31"}
{"sequence": "CGGGAACAAAUCUAAAAUGTT against E130310N06", "z-score": "inactive: 0.729"}
{"sequence": "GGAAGCAGAGAAAAUCCUGTT against Fbxl12", "z-score": "inactive: -0.466"}
{"sequence": "GGUAUUUAGGUUGAUAACATT against Takrp", "z-score": "inactive: -0.726"}
{"sequence": "CAAAACCAUCCUUGGAAGUTT against Mrgpra8", "z-score": "inactive: 1.8"}
{"sequence": "GGAUAGAAAACAGUAUCUGTT against 2310009E04Rik", "z-score": "inactive: -0.09"}
{"sequence": "GGGCAUCAAGUGUAAAAAATT against Crsp9", "z-score": "inactive: -0.181"}
{"sequence": "GCAACACAAGAUUGUAUUGTT against D2Ertd145e", "z-score": "inactive: -2.55"}
{"sequence": "GGAAACUGGAAACAAAACATT against AI429152", "z-score": "inactive: -0.237"}
{"sequence": "GCUUUAUGGGAGACAAAGGTT against 1700022I11Rik", "z-score": "inactive: 0.67"}
{"sequence": "GGAACAUGGCUUAAAGUACTT against Mrpl20", "z-score": "inactive: -1.41"}
{"sequence": "GCAGGCAUCAUCACGACAUTT against Gprc5c", "z-score": "inactive: 0.132"}
{"sequence": "GGGCUUUAAUACUGAGAAGTT against 1110036H21Rik", "z-score": "inactive: -0.981"}
{"sequence": "CAUGAUAGCGAUAGCAAUCTT against Olfr507", "z-score": "inactive: 0.609"}
{"sequence": "GGACCCAUCGAAACCUCUATT against Pirb", "z-score": "inactive: -0.133"}
{"sequence": "GCACCUAGCAGACAAAUAATT against Ppp1r3a", "z-score": "inactive: -1.41"}
{"sequence": "GGCUGUGAGUAAACUUAUATT against Olfr301", "z-score": "inactive: 0.194"}
{"sequence": "GGUGAUGGGAAUAAAAACATT against Polg", "z-score": "inactive: -0.631"}
{"sequence": "GGCCUCAAGUUGCUAUGCCTT against Wbscr14", "z-score": "inactive: 1.13"}
{"sequence": "GGGCGAGCUCUUCAAGUUUTT against Mapk4", "z-score": "inactive: -0.325"}
{"sequence": "GGGUUUCCUUAUGAGAAAGTT against 1810046J19Rik", "z-score": "inactive: 0.342"}
{"sequence": "GCCCUUCACUCUUCCUUUATT against Olfr137", "z-score": "inactive: -0.058"}
{"sequence": "GCAUGAUCAAAUUGUAUCUTT against Nde1", "z-score": "inactive: 0.367"}
{"sequence": "GGAUGGACUUCGUCAUGAATT against Cplx2", "z-score": "inactive: -2.26"}
{"sequence": "GGACUCUUUGGAACUACAATT against Nup98", "z-score": "inactive: -3.13"}
{"sequence": "GGCUUUCCCAAAGACUUCUTT against Col11a2", "z-score": "inactive: -1.73"}
{"sequence": "GGUAAAGUUCACGGUUCCCTT against Fau", "z-score": "inactive: -0.429"}
{"sequence": "GGCAUCGUUUCAGACUCGCTT against Abcc9", "z-score": "inactive: -0.65"}
{"sequence": "GGAUUAUCAGGAUCUUAUATT against Ate1", "z-score": "inactive: 1.06"}
{"sequence": "GGGAGACAGAGAAAUCCUGTT against 2310045B01Rik", "z-score": "inactive: 1.34"}
{"sequence": "GGCAUUCACCAUACAAUGATT against 1810045K17Rik", "z-score": "inactive: -1.72"}
{"sequence": "GGGCUCAUCAUUGUUAUUCTT against Olfr394", "z-score": "inactive: 0.554"}
{"sequence": "GGCACUGCUAUUAACUACATT against 4933414I15Rik", "z-score": "inactive: 0.505"}
{"sequence": "CCUUUUACACUCUAGUAUGTT against Ptger4", "z-score": "inactive: -0.689"}
{"sequence": "GCUUAUAGAAAACCAGUAATT against Foxd1", "z-score": "inactive: -1.8"}
{"sequence": "GGAAAACCAAAGGCUCACCTT against Cyp2c29", "z-score": "inactive: -0.53"}
{"sequence": "CGAAAACCACAGGUUUCUGTT against Col5a1", "z-score": "inactive: 0.741"}
{"sequence": "GGAUUAGCUCUACAGAAGGTT against Olfr1031", "z-score": "inactive: 1.59"}
{"sequence": "GCAUUGGCAGACCCGAGUUTT against Pir", "z-score": "inactive: -1.35"}
{"sequence": "GGUACCUCUCAGAUUAAGUTT against Metap1", "z-score": "inactive: -0.329"}
{"sequence": "GCGGCGAAAAAGAUGCAUGTT against Hbq1", "z-score": "inactive: -1.84"}
{"sequence": "GCUUGAACCUCAACACCAATT against Gpi1", "z-score": "inactive: -1.85"}
{"sequence": "CCAGAAUGUAAACUUGGUCTT against Trpv6", "z-score": "inactive: -0.602"}
{"sequence": "CGGGUAUCAUGUACUACCUTT against Slc6a9", "z-score": "inactive: -0.499"}
{"sequence": "GGAGAAGAUGAUUAAGACCTT against Anp32b", "z-score": "inactive: -0.309"}
{"sequence": "GGUGGAGAGUGAACAACAATT against Tpr", "z-score": "inactive: -2.34"}
{"sequence": "GGUUUGAAAGGAGAAAGAGTT against Col4a6", "z-score": "inactive: -0.833"}
{"sequence": "GGGCAAGAAAGGUGUUUUGTT against Prdx5", "z-score": "inactive: 0.469"}
{"sequence": "GGUUUUCAAACCCUUGUGGTT against Rnf44", "z-score": "inactive: 0.232"}
{"sequence": "GGGAUUUAAAGCCAACUUGTT against Sfpq", "z-score": "inactive: 1.72"}
{"sequence": "GGAUUUGGCUACAAAAACATT against Ppib", "z-score": "inactive: 0.381"}
